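293T-iDUX4 dual-reporter cells; luminescence of the tet-on Italica luciferase control is read after 24 h.
The test concentration is not given here.
Percent change in the Italica control signal; more negative values mean stronger inhibition, which points to nonspecific, tet-on or cytotoxic effects.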

Values are in %.
Common to all entries: measured here: Italica tet-on control reporter.
This is a side read-out of the assay, for part of the compounds, not drawn at random.

compound,activity change (%)
O=C(C[C@@H]1CC[C@H]2[C@@H](COC[C@H](O)CN2S(=O)(=O)c2ccc(Oc3ccccc3)cc2)O1)Nc1ccccc1,-30.53
O=C(C[C@@H]1CC[C@@H]2[C@H](COC[C@@H](O)CN2Cc2cccc(C(F)(F)F)c2)O1)NCc1ccc(Cl)cc1,-3.859
C[C@@H]1CN([C@H](C)CO)C(=O)CCCn2nncc2CO[C@@H]1CN(C)Cc1ccc(C(=O)Nc2ccccc2N)cc1,-7.034
O=C(NCC1CC1)[C@@H]1[C@@H](CO)[C@@H]2Cn3c(ccc(-c4cccc(F)c4)c3=O)[C@@H]2N1CC1CCCC1,-21.53
COc1ccc2c3c([nH]c2c1)[C@H](CO)N(Cc1ccccc1)CC31CCN(CC2CC2)CC1,-88.12
CN1C(=O)c2cc(NC(=O)c3ccc(C(F)(F)F)cc3)ccc2OC[C@H]2O[C@H](CC(=O)NC3Cc4ccccc4C3)CC[C@H]21,-15.3
COCC(=O)N1CC2(C1)CN(Cc1ccccc1Cl)[C@@H](CO)c1[nH]c3cc(OC)ccc3c12,-49.92
O=C(Cc1ccncc1)N1CCCCN2[C@@H](CO)[C@@H](c3ccc(C#Cc4ccccc4F)cc3)[C@@H]2C1,-21.64
COc1ccc(NC(=O)N2CC(=O)N3[C@@H](CO)[C@@H](c4ccc(C5=CCCC5)cc4)[C@@H]3C2)cc1,-12.96
O=C(C[C@@H]1CC[C@H]2[C@@H](COC[C@@H](O)CN2Cc2ccc(Oc3ccccc3)cc2)O1)Nc1nccs1,-35.23
COc1ccc2c3c([nH]c2c1)[C@H](CO)N(CC1CC1)CC31CN(S(=O)(=O)c2cccc(F)c2)C1,-11.31
CCCNC(=O)N1CC2(CN(Cc3ccccn3)C2)c2c(n(C)c3cc(OC)ccc23)[C@@H]1CO,-17.57
N#C[C@@H]1[C@@H](c2ccc(-c3ccccc3)cc2)[C@H](CO)N1C(=O)Cc1ccccc1,-21.21
COc1ccc2c3c([nH]c2c1)[C@@H](CO)N(Cc1ccccc1)CC31CN(C)C1,-14.91
O=C(C[C@@H]1CC[C@H]2[C@@H](COC[C@@H](O)CN2Cc2cccc(C(F)(F)F)c2)O1)NCc1ccc(F)cc1,-52.77
CC(C)NC(=O)N1CCCCN2[C@H](CO)[C@H](c3ccc(C#Cc4ccccc4F)cc3)[C@@H]2C1,-7.821
C[C@@H]1CN([C@@H](C)CO)C(=O)CCCn2nncc2CO[C@H]1CN(C)Cc1ccc(Oc2ccccc2)cc1,-19.35
O=C(Cc1ccccc1)N1CC2(C1)[C@H](c1ccccc1)[C@@H](CO)N2Cc1cccc(F)c1,-28.06
CS(=O)(=O)Nc1ccc2c(c1)[C@@H]1C[C@@H](CC(=O)NCc3ccc(Oc4ccccc4)cc3)O[C@H](CO)[C@@H]1O2,-39.59
COc1ccc(NC(=O)Nc2ccc3c(c2)C(=O)N([C@H](C)CO)C[C@H](C)[C@@H](CN(C)S(=O)(=O)c2cccs2)OCCCC[C@H](C)O3)cc1,-10.66
O=C(Cc1ccccc1)N1CC[C@H]2[C@H](CO)Nc3ccc(-c4cccc(F)c4)cc3[C@H]21,-14.14
CN1CCN(C(=O)C[C@@H]2C[C@@H]3c4cc(NC(=O)Nc5ccc(C(F)(F)F)cc5)ccc4O[C@@H]3[C@@H](CO)O2)CC1,-9.084
COc1cccc(C#Cc2ccc([C@H]3[C@H]4CN(C(=O)c5ccccc5)CC(=O)N4[C@H]3CO)cc2)c1,-14.95
Cc1ccccc1-c1ccccc1[C@H]1[C@@H](CO)N(C(=O)c2ccc(F)cc2)[C@H]1C#N,-11.64
O=C(C1CCCCC1)N1CC2(C1)[C@H](c1ccccc1)[C@H](CO)N2CCC(F)(F)F,-6.878
O=C(c1ccncc1)N1CC[C@@H]2[C@@H](CO)Nc3ccc(-c4ccc(F)cc4)cc3[C@@H]21,-16.44
O=C1CN(S(=O)(=O)Cc2ccccc2)C[C@@H]2[C@@H](c3ccc(C#Cc4ccccc4)cc3)[C@H](CO)N12,-37.52
C[C@@H]1CN([C@@H](C)CO)C(=O)c2c(c3ccccc3n2C)-c2ccccc2CO[C@H]1CN(C)C(=O)[C@H](Cc1ccccc1)N(C)C,-13.31
C[C@H]1CN([C@@H](C)CO)C(=O)c2ccccc2-c2ccccc2CO[C@H]1CN(C)S(=O)(=O)c1ccc(C#N)cc1,-4.018
N#Cc1cccc(-c2ccc(C3[C@@H]4CN(S(=O)(=O)c5ccc(F)cc5)C[C@H]3N4)cc2)c1 (stereo partly specified),-18.1
COc1ccc2c3c([nH]c2c1)[C@H](CO)N(Cc1ccccc1)CC31CN(C(=O)Nc2cccc(F)c2)C1,-7.654
COc1ccc(-c2ccc(C3[C@@H]4CN(Cc5cc(OC)cc(OC)c5)C[C@H]3N4)cc2)cc1 (stereo partly specified),3.709
COc1ccc2c3c([nH]c2c1)[C@@H](CO)N(Cc1ccccc1)CC31CN(C(=O)c2ccccn2)C1,-16.03
O=C(C[C@@H]1CC[C@H]2[C@@H](COC[C@H](O)CN2CCC(F)(F)F)O1)NCc1ccc(Oc2ccccc2)cc1,-16.43
O=C(C[C@@H]1C[C@H]2c3cc(NC(=O)c4ccc5c(c4)OCO5)ccc3O[C@H]2[C@H](CO)O1)NC1CCCCC1,-59.44
COc1ccccc1S(=O)(=O)N1CC[C@@H]2[C@@H](CO)Nc3ccc(-c4ccccc4)cc3[C@@H]21,-61.13
O=S(=O)(c1ccccc1)N1CCCCN2[C@@H](CO)[C@H](c3ccc(-c4ccccc4F)cc3)[C@@H]2C1,-1.417
CN1c2ccc(-c3cccc(C#N)c3)cc2[C@@H]2[C@@H](CCN2S(=O)(=O)c2ccccc2)[C@H]1CO,-55.67
COc1ccc(S(=O)(=O)N2CCCCN3[C@H](C2)[C@@H](c2ccc(C#CC(C)C)cc2)[C@@H]3CO)cc1,5.569
O=C(C[C@H]1CC[C@@H]2[C@H](COC[C@@H](O)CN2Cc2cc(F)cc(F)c2)O1)Nc1nccs1,-10.3
O=C(c1cccc(F)c1)N1CCCCN2[C@H](CO)[C@@H](c3ccc(/C=C/c4ccccc4)cc3)[C@H]2C1,-14.16
O=C(c1cccnc1)N1CCCCN2[C@H](CO)[C@H](c3ccc(C#Cc4cccnc4)cc3)[C@H]2C1,-7.334
N#Cc1cccc(-c2ccc3c(c2)[C@H]2[C@H](CCN2C(=O)C2CCCCC2)[C@@H](CO)N3)c1,-26.71
N#Cc1cccc(-c2ccc(C3[C@@H]4CN(C(=O)Nc5ccc(C(F)(F)F)cc5)C[C@H]3N4)cc2)c1 (stereo partly specified),-8.79
COc1cccc(C#Cc2ccc3c(c2)[C@@H]2[C@@H](CCN2C(=O)c2ccccc2F)[C@@H](CO)N3C)c1,-0.1543
COc1ccc(NC(=O)N2CCCCN3[C@H](CO)[C@H](c4ccc(C#CCC(C)C)cc4)[C@@H]3C2)cc1,-8.598
COc1ccc2c3c([nH]c2c1)[C@H](CO)N(C(=O)C1CCOCC1)CC31CCN(Cc2cccc(F)c2)CC1,-67.71
N#Cc1cccc(-c2ccc3c(c2)[C@H]2[C@H](CCN2S(=O)(=O)c2ccccc2F)[C@H](CO)N3)c1,-70.56

The last 5 entries again:

Result for N#Cc1cccc(-c2ccc(C3[C@@H]4CN(C(=O)Nc5ccc(C(F)(F)F)cc5)C[C@H]3N4)cc2)c1 (stereo partly specified) was activity change -8.79%.
Result for COc1cccc(C#Cc2ccc3c(c2)[C@@H]2[C@@H](CCN2C(=O)c2ccccc2F)[C@@H](CO)N3C)c1 was activity change -0.1543%.
Result for COc1ccc(NC(=O)N2CCCCN3[C@H](CO)[C@H](c4ccc(C#CCC(C)C)cc4)[C@@H]3C2)cc1 was activity change -8.598%.
Result for COc1ccc2c3c([nH]c2c1)[C@H](CO)N(C(=O)C1CCOCC1)CC31CCN(Cc2cccc(F)c2)CC1 was activity change -67.71%.
Result for N#Cc1cccc(-c2ccc3c(c2)[C@H]2[C@H](CCN2S(=O)(=O)c2ccccc2F)[C@H](CO)N3)c1 was activity change -70.56%.

From PubChem BioAssay record AID1224904 (Broad Institute, 2016).